Measurements as given in the supplement of paper PMC12067093, “Discovery and optimisation of a covalent ligand for TRIM25 and its application to targeted protein ubiquitination” (Chemical Science, 2025).
This is one part of the list.

Protein sequences, listed by entry. Tags and fused reporters are not part of them. Lines headed by an entry give the natural chain unless they say otherwise; changes in a name come on top.
UniProt P07332: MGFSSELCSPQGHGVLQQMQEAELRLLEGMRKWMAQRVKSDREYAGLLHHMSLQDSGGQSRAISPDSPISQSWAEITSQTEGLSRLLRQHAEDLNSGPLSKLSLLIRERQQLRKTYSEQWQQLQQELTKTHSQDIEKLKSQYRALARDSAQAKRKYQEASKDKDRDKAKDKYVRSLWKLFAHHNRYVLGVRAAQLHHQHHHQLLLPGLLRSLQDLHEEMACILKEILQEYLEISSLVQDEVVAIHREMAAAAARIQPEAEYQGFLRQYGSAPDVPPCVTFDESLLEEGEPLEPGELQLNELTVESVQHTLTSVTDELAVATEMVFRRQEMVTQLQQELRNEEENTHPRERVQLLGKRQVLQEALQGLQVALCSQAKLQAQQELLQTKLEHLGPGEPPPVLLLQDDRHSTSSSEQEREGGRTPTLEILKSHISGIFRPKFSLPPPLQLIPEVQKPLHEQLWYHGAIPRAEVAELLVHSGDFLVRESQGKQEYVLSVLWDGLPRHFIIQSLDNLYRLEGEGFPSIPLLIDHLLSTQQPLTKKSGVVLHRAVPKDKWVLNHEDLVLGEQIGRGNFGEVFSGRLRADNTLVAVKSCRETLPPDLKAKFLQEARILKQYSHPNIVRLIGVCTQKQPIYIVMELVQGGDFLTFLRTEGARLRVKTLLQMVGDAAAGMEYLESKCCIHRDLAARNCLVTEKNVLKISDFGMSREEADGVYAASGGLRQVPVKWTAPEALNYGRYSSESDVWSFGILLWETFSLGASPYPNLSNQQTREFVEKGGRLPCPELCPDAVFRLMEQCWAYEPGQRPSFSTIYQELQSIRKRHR
UniProt P49327, whole entry, looked up: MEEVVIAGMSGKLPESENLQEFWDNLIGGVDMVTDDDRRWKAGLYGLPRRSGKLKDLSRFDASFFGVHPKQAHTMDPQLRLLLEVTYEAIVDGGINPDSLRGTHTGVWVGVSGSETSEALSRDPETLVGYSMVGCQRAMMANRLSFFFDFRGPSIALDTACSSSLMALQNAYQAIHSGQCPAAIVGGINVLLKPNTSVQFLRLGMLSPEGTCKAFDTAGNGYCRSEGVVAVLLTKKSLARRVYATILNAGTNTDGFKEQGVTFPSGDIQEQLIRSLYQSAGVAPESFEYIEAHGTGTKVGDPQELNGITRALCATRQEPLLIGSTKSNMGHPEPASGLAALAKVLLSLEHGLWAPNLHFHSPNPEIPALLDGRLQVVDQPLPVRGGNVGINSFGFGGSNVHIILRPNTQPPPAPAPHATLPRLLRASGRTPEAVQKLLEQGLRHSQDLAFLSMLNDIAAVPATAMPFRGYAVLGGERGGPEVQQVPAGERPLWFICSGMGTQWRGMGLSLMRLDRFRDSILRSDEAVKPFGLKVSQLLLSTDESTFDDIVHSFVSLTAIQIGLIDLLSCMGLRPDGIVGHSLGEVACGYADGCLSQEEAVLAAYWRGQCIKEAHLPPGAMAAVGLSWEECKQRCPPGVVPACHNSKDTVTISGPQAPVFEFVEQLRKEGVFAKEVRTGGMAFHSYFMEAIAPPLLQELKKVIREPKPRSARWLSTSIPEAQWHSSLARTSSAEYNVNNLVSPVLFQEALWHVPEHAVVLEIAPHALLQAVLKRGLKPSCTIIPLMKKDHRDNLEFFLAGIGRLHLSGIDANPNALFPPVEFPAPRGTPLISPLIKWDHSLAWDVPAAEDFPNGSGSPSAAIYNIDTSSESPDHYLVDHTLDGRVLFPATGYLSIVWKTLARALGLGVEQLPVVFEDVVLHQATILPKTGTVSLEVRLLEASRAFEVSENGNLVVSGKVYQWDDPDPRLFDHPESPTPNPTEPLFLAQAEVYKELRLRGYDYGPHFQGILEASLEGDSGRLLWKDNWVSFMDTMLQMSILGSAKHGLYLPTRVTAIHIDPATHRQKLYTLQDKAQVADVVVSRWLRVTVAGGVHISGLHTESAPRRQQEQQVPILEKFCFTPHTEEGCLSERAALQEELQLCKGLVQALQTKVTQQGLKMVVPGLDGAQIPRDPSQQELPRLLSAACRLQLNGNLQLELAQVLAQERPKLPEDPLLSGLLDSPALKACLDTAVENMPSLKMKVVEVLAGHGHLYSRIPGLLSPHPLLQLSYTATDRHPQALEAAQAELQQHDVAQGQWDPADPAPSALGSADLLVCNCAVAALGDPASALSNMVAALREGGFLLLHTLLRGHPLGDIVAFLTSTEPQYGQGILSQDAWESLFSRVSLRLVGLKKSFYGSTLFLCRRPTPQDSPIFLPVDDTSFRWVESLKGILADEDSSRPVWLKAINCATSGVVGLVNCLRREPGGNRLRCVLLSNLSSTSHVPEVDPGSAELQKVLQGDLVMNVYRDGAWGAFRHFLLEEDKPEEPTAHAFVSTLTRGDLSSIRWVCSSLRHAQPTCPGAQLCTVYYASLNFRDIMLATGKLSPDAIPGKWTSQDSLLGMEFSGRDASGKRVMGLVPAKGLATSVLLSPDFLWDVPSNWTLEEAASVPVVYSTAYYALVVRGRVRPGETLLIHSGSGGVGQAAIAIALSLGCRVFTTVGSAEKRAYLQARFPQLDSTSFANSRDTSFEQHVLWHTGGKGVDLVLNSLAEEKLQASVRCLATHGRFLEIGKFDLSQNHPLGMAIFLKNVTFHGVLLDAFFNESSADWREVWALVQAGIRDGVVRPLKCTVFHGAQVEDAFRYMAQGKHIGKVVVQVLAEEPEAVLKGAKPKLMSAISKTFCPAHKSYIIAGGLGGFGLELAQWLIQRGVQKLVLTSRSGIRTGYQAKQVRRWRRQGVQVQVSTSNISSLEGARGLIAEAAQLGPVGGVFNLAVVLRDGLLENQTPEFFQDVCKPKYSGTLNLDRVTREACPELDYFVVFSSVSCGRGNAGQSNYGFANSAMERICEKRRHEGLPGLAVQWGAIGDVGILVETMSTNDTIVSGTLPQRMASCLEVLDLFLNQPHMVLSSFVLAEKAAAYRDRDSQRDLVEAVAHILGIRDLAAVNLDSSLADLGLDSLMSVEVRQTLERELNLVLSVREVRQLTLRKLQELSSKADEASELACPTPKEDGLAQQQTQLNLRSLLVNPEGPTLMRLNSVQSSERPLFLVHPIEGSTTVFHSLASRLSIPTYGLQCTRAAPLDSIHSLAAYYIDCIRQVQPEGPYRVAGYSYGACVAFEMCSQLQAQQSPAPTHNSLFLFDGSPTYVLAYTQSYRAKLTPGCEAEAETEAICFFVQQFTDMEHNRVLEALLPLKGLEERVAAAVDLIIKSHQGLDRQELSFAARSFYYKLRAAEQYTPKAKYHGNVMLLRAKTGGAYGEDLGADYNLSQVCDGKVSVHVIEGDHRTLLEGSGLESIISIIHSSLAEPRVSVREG
UniProt Q5W0V3: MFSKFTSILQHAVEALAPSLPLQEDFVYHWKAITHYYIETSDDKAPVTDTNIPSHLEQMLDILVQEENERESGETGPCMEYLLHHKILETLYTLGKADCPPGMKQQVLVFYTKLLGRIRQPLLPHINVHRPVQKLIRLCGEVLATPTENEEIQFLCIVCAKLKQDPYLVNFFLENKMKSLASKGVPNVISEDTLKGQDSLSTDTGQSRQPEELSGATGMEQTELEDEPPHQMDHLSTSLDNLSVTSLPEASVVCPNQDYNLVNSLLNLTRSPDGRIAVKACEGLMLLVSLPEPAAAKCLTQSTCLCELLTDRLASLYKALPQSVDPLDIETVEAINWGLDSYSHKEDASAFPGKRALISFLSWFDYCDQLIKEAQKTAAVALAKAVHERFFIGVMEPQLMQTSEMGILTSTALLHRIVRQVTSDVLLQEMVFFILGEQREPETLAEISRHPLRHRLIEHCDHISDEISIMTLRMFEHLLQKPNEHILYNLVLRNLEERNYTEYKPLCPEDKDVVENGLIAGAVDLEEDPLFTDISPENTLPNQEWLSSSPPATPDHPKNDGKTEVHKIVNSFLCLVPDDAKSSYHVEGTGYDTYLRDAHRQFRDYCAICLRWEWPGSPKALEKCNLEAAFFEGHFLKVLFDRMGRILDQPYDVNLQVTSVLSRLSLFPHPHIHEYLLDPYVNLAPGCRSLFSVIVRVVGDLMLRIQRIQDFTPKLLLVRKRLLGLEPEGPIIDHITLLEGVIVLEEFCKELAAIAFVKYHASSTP
UniProt Q9NYY8: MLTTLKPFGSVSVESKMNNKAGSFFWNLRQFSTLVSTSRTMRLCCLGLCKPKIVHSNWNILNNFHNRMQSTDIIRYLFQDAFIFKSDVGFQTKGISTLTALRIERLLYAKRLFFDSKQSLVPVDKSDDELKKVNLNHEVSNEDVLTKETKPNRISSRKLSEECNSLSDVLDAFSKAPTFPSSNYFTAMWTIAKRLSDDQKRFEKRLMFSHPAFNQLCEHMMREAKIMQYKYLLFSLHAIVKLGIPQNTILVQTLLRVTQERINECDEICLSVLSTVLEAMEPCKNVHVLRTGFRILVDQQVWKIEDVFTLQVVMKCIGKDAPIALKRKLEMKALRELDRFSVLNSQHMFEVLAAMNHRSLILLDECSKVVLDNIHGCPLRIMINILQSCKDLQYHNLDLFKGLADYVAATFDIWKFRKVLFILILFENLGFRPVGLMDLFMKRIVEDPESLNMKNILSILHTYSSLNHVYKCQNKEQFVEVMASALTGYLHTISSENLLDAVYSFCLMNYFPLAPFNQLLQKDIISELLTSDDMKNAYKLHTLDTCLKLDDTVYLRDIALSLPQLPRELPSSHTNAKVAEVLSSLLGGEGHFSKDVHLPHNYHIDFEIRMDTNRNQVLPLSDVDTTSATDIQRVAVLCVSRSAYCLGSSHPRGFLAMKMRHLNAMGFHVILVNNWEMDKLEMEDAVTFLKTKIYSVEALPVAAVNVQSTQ
UniProt P23142: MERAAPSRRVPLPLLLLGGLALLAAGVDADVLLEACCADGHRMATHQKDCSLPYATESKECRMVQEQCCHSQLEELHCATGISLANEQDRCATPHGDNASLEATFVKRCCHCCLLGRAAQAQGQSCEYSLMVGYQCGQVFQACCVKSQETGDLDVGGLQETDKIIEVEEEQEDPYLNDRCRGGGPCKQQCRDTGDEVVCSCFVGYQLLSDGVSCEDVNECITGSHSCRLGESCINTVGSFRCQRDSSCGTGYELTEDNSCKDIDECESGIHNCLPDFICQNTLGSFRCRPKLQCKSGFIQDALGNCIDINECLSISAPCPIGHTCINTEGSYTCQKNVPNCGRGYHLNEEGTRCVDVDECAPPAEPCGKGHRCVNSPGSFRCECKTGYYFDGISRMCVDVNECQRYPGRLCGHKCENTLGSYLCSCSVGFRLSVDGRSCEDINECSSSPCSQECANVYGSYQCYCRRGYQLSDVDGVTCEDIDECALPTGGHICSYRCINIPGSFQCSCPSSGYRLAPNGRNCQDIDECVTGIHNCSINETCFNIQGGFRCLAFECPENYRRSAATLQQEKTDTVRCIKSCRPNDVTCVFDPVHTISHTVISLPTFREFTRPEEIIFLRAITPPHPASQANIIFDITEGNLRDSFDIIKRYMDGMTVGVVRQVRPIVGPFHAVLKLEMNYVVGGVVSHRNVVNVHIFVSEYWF
UniProt P09467: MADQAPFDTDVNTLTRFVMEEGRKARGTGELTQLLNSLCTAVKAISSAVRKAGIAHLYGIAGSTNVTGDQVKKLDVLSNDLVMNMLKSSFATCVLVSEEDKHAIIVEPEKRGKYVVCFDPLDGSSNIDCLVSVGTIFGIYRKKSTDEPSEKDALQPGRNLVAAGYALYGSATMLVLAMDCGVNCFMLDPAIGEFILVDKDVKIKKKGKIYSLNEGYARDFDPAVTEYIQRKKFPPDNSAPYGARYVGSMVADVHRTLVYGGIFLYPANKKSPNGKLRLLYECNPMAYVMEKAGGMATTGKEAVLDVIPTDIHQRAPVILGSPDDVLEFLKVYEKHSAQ
UniProt Q9Y324: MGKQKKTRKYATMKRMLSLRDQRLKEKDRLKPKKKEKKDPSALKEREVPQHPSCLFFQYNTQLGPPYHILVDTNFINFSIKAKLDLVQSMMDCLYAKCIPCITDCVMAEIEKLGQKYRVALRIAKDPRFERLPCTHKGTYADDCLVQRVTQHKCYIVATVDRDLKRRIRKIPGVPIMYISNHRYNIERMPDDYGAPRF
UniProt Q9UKB1: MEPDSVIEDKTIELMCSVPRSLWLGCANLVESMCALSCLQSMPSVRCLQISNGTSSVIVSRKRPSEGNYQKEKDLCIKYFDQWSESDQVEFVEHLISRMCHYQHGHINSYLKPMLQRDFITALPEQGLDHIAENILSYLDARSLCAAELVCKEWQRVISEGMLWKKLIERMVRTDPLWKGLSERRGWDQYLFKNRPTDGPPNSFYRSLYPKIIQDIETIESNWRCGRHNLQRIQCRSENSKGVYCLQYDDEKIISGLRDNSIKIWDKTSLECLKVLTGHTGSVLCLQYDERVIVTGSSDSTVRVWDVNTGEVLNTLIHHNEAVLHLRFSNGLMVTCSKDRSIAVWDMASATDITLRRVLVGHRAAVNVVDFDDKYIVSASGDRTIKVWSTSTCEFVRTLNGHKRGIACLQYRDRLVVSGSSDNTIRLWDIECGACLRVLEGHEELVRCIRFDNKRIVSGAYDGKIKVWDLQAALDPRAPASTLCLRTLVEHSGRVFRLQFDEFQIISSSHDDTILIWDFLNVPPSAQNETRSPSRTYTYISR

Compound: CC1Cc2ccccc2N1C(=O)C1CCCN(C1)C(=O)CCl (mixture of isomers) [TRIM25 ligand 11 (diastereomer mixture)]
Test: probe-labelled cysteine peptide fold change vs DMSO (competition) (log2 fold change); higher = less target engagement (more negative = stronger competition)
Details: THP-1, incubation time: 4 h
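Note: competitive chemoproteomic profiling in live THP-1 cells with an iodoacetamide desthiobiotin (IA-DTB) probe, comparing probe-labelled peptide intensities in compound-treated cells against DMSO-treated controls.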

Row | Target | probe-labelled cysteine peptide fold change (10 µM) | probe-labelled cysteine peptide fold change (50 µM)
1 | FES_P07332_626_LIGVCTQK (UniProt P07332) | 0.0381 | 0.19
2 | FASN_P49327_1992_DGLLENQTPEFFQDVCKPK (UniProt P49327) | 0.00613 | 0.00399
3 | FAM83H_Q6ZRV2_57_FLATEGAPDFLCPEELEHVSR (UniProt Q6ZRV2) | 0.0919 | -0.0291
4 | FAM160B1_Q5W0V3_507_NYTEYKPLCPEDK (UniProt Q5W0V3) | -0.0533 | -0.172
5 | FASTKD2_Q9NYY8_163_KLSEECNSLSDVLDAFSK (UniProt Q9NYY8) | -0.139 | 0.0616
6 | FASN_P49327_2202_ADEASELACPTPK (UniProt P49327) | -0.0516 | -0.302
7 | FASN_P49327_2024_EACPELDYFVVFSSVSCGR (UniProt P49327) | -0.175 | -0.179
8 | FASN_P49327_779_GLKPSCTIIPLMK (UniProt P49327) | -0.191 | -0.232
9 | FAM160B1_Q5W0V3_624_CNLEAAFFEGHFLK (UniProt Q5W0V3) | 0.125 | 0.181
10 | FBLN1_P23142_109_CCHCCLLGR (UniProt P23142) | 0.315 | 0.223
11 | FBXO38_Q6PIJ6_303_NLHTIVLGACK (UniProt Q6PIJ6) | -0.0863 | -0.107
12 | FAM185A_Q8N0U4_161_SSGSGCVK (UniProt Q8N0U4) | 0.105 | 0.0307
13 | FCHO2_Q0JRZ9_86_LANCHLDLVR (UniProt Q0JRZ9) | 0.0991 | 0.191
14 | FBP1_P09467_93_SSFATCVLVSEEDK (UniProt P09467) | 0.153 | 0.202
15 | FAM98C_Q17RN3_287_ADLSCLVPATSVAVR (UniProt Q17RN3) | 0.0695 | 0.113
16 | FCF1_Q9Y324_93_AKLDLVQSMMDCLYAK (UniProt Q9Y324) | 0.168 | 0.0918
17 | FBP1_P09467_282_LLYECNPMAYVMEK (UniProt P09467) | 0.0116 | -0.145
18 | FBXW11_Q9UKB1_484_APASTLCLR (UniProt Q9UKB1) | 0.102 | 0.263
19 | FAM126B_Q8IXS8_7_CVVEEWLSEFK (UniProt Q8IXS8) | 0.0412 | -0.14
20 | FERMT2_Q96AC1_426_GCEVTPDVNISGQK (UniProt Q96AC1) | 0.0821 | 0.17
21 | FGB_P02675_437_CHAANPNGR (UniProt P02675) | 0.506 | 0.339
22 | FAM98B_Q52LJ0_220_INDALSCEYECR (UniProt Q52LJ0) | -0.00202 | 0.0911
23 | FGD2_Q7Z6J4_548_GSSATPDQSLMCSFLQLIGDK (UniProt Q7Z6J4) | 0.332 | -0.12
24 | FBXL19_Q6PCT2_125_FGLSLMECTICNEIVHPGCLK (UniProt Q6PCT2) | 0.0269 | 0.0183
25 | FES_P07332_8_GFSSELCSPQGHGVLQQMQEAELR (UniProt P07332) | 0.0794 | -0.137
26 | FAM208B_Q5VWN6_186_VIPILSTLNCALLETKK (UniProt Q5VWN6) | -0.356 | -0.372
27 | FANCI_Q9NVI1_1025_EDALFCK (UniProt Q9NVI1) | 0.124 | -0.134

Already shown: entries from further up.
Row | Target | probe-labelled cysteine peptide fold change (10 µM) | probe-labelled cysteine peptide fold change (50 µM)
17 | FBP1_P09467_282_LLYECNPMAYVMEK (UniProt P09467) | 0.0116 | -0.145
18 | FBXW11_Q9UKB1_484_APASTLCLR (UniProt Q9UKB1) | 0.102 | 0.263
